According to publication PMC5354272:
Results are given in words; binding and its absence hold for the method and conditions named. In cells and extracts the contact can be indirect. Some results given as binding are weak or reduced against the parent protein; the word gives no strength.

What was measured:
[1] = biological target: p97/VCP (human (endogenous in AT01, Hu339 and liver tissue)) (UniProt P55072); experiment: co-IP; AT01 cells transfected with Z-RFP, 24 h later with WT gp78, WT gp78 and WT SVIP or mutant SVIP (VIMm); treated with MG132; IP for gp78, Western blot for p97/VCP
[2] = biological target: p97/VCP (human (endogenous in AT01, Hu339 and liver tissue)) (UniProt P55072); experiment: co-IP; AT01 cells transfected with non targeting siRNA or siSVIP (2 μM); IP of gp78, IB with anti-p97/VCP antibody

Row | binding [1] | binding [2] | Binder
1 | binds | – | WT SVIP (overexpressed from pCMV6-Entry-SVIP) (protein, UniProt Q8NHG7 1-77) MGLCFPCPGESAPPTPDLEEKRAKLAEAAERRQKEAASRGILDVQSVQEKRKKKEKIEKQIATSGPPPEGGLRWTVS
2 | – | binds | SVIP (endogenous) (protein, UniProt Q8NHG7 1-77) MGLCFPCPGESAPPTPDLEEKRAKLAEAAERRQKEAASRGILDVQSVQEKRKKKEKIEKQIATSGPPPEGGLRWTVS
